This is one part of the list. Repeats are few or missing, and single values can be far off.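 Imaging used 1,536-well plates; nuclei positive for cleaved PARP by antibody were divided by total DNA-stained nuclei to yield the apoptosis fraction. Doses for screening kept most cells viable, and cell lines differ markedly in resting and induced cleaved-PARP levels.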
Each compound was assayed on COLO829 (assay: cleaved PARP positive nuclei fraction relative to DMSO control; melanoma cells; higher = more apoptosis). Conditions: library dose: low library concentration; 72 h.

SMILES	cleaved PARP positive nuclei fraction [%]
O=c1[nH]nc(Sc2ncc([N+](=O)[O-])s2)n1-c1ccc2c(c1)OCCO2 + COc1cc2c(Oc3ccc4[nH]c(C)cc4c3F)ncnc2cc1OCCCN1CCCC1 [cediranib] (first compound 0.2 µM, partner dose 0.4 µM)	74.9
Cc1cc(Nc2cc(N3CCN(C)CC3)nc(Sc3ccc(NC(=O)C4CC4)cc3)n2)n[nH]1 [Tozasertib] + NC(=O)Nc1cc(-c2cccc(F)c2)sc1C(=O)N[C@H]1CCCNC1 [AZD7762] (first compound 0.006 µM, partner dose 0.02 µM)	91.1
Cc1cn(-c2cc(NC(=O)c3ccc(C)c(Nc4nccc(-c5cccnc5)n4)c3)cc(C(F)(F)F)c2)cn1 [nilotinib] + O=C(Nc1cccc(Cl)c1)Nc1ncc(CCNc2ncnc3ccsc23)s1 [SNS314] (first compound 0.2 µM, partner dose 0.0008 µM)	111
CCCCCCCCCCCCCCCCCCOP(=O)([O-])OC1CC[N+](C)(C)CC1 [Perifosine] + CC(C)(C)c1cnc(CSc2cnc(NC(=O)C3CCNCC3)s2)o1 [SNS-032] (first compound 0.4 µM, partner dose 0.01 µM)	128
O=C(Nc1cc(C(F)(F)F)cc(C(F)(F)F)c1)c1cc(Cl)ccc1O + NCC(=O)Nc1ccc(-n2nc(C(F)(F)F)cc2-c2ccc3c(ccc4ccccc43)c2)cc1 [OSU03012] (first compound 0.016 µM, partner dose 1 µM)	113
CCCCCCCCCCCCCCCCCCOP(=O)([O-])OC1CC[N+](C)(C)CC1 [Perifosine] + O=C(O)c1ccc(-c2c[nH]c3ncc(-c4ccccc4)cc23)cc1C1CCCC1 [GSK650394] (first compound 0.4 µM, partner dose 0.16 µM)	177
O=C(Nc1cc(C(F)(F)F)cc(C(F)(F)F)c1)c1cc(Cl)ccc1O + C[C@@H]1CCN(C(=O)CC#N)C[C@@H]1N(C)c1ncnc2[nH]ccc12 [CP690550] (first compound 0.016 µM, partner dose 1 µM)	81.8
CC[C@]1(O)C[C@H]2CN(CCc3c([nH]c4ccccc34)[C@@](C(=O)OC)(c3cc4c(cc3OC)N(C=O)[C@H]3[C@@](O)(C(=O)OC)[C@H](OC(C)=O)[C@]5(CC)C=CCN6CC[C@]43[C@@H]65)C2)C1 [vincristine] + CO[C@@H]1[C@H](N(C)C(=O)c2ccccc2)C[C@H]2O[C@]1(C)n1c3ccccc3c3c4c(c5c6ccccc6n2c5c31)C(=O)NC4 [Midostaurin] (first compound 0.0001 µM, partner dose 0.08 µM)	113
COc1cc([C@@H]2c3cc4c(cc3[C@@H](O[C@@H]3O[C@@H]5CO[C@@H](C)O[C@H]5[C@H](O)[C@H]3O)[C@H]3COC(=O)[C@H]23)OCO4)cc(OC)c1O [etoposide] + OCCn1cc(-c2cnc3nnn(Cc4ccc5ncccc5c4)c3n2)cn1 [PF04217903] (first compound 0.02 µM, partner dose 1 µM)	72.5
CCCCCCCCCCCCCCCCCCOP(=O)([O-])OC1CC[N+](C)(C)CC1 [Perifosine] + C[C@@H]1CCN(C(=O)CC#N)C[C@@H]1N(C)c1ncnc2[nH]ccc12 [CP690550] (first compound 0.4 µM, partner dose 1 µM)	75.8
O=C(/C=C/c1cccnc1)NCCCCC1CCN(C(=O)c2ccccc2)CC1 + Cc1ccc(NC(=O)c2cccc(N(C)C)c2)cc1NC(=O)c1ccc(O)cc1 [ZM336372] (first compound 0.01 µM, partner dose 2 µM)	261
Cc1ccc(Nc2nccc(N(C)c3ccc4c(C)n(C)nc4c3)n2)cc1S(N)(=O)=O [Pazopanib] + COc1cc(Nc2ncc(F)c(Nc3ccc4c(n3)NC(=O)C(C)(C)O4)n2)cc(OC)c1OC [Tamatinib] (first compound 0.4 µM, partner dose 0.4 µM)	88.3
N#CC[C@H](C1CCCC1)n1cc(-c2ncnc3[nH]ccc23)cn1 [ruxolitinib] + COc1cc(Nc2ncc(F)c(Nc3ccc4c(n3)NC(=O)C(C)(C)O4)n2)cc(OC)c1OC [Tamatinib] (first compound 1 µM, partner dose 0.4 µM)	73.1
COc1cc([C@@H]2c3cc4c(cc3[C@@H](O[C@@H]3O[C@@H]5CO[C@@H](C)O[C@H]5[C@H](O)[C@H]3O)[C@H]3COC(=O)[C@H]23)OCO4)cc(OC)c1O [etoposide] + CN(NC(=O)CC(=O)NN(C)C(=S)c1ccccc1)C(=S)c1ccccc1 [STA4783] (first compound 0.02 µM, partner dose 0.006 µM)	159
O=C(Nc1cc(C(F)(F)F)cc(C(F)(F)F)c1)c1cc(Cl)ccc1O + O=C(Nc1cccc(Cl)c1)Nc1ncc(CCNc2ncnc3ccsc23)s1 [SNS314] (first compound 0.016 µM, partner dose 0.0008 µM)	53.6
Cc1cn(-c2cc(NC(=O)c3ccc(C)c(Nc4nccc(-c5cccnc5)n4)c3)cc(C(F)(F)F)c2)cn1 [nilotinib] + NC(=O)Nc1cc(-c2cccc(F)c2)sc1C(=O)N[C@H]1CCCNC1 [AZD7762] (first compound 0.2 µM, partner dose 0.02 µM)	122
Cc1cn(-c2cc(NC(=O)c3ccc(C)c(Nc4nccc(-c5cccnc5)n4)c3)cc(C(F)(F)F)c2)cn1 [nilotinib] + O=C(O)c1ccc(-c2c[nH]c3ncc(-c4ccccc4)cc23)cc1C1CCCC1 [GSK650394] (first compound 0.2 µM, partner dose 0.16 µM)	59.5
O=C(/C=C/c1cccnc1)NCCCCC1CCN(C(=O)c2ccccc2)CC1 + CC(C)(C)c1cnc(CSc2cnc(NC(=O)C3CCNCC3)s2)o1 [SNS-032] (first compound 0.01 µM, partner dose 0.01 µM)	187
Cc1cn(-c2cc(NC(=O)c3ccc(C)c(Nc4nccc(-c5cccnc5)n4)c3)cc(C(F)(F)F)c2)cn1 [nilotinib] + O=C(CCCCCCC(=O)Nc1ccccc1)NO [vorinostat] (first compound 0.2 µM, partner dose 0.08 µM)	83.4
N#CC[C@H](C1CCCC1)n1cc(-c2ncnc3[nH]ccc23)cn1 [ruxolitinib] + O=C(O)c1ccc(-c2c[nH]c3ncc(-c4ccccc4)cc23)cc1C1CCCC1 [GSK650394] (first compound 1 µM, partner dose 0.16 µM)	68.3
O=C(Nc1cc(C(F)(F)F)cc(C(F)(F)F)c1)c1cc(Cl)ccc1O + CO[C@@H]1[C@H](N(C)C(=O)c2ccccc2)C[C@H]2O[C@]1(C)n1c3ccccc3c3c4c(c5c6ccccc6n2c5c31)C(=O)NC4 [Midostaurin] (first compound 0.016 µM, partner dose 0.08 µM)	145
N#CC[C@H](C1CCCC1)n1cc(-c2ncnc3[nH]ccc23)cn1 [ruxolitinib] + Cc1ccc(NC(=O)c2cccc(N(C)C)c2)cc1NC(=O)c1ccc(O)cc1 [ZM336372] (first compound 1 µM, partner dose 2 µM)	74.9
N#CC[C@H](C1CCCC1)n1cc(-c2ncnc3[nH]ccc23)cn1 [ruxolitinib] + CC1(C)NC(=O)N(c2ccc([N+](=O)[O-])c(C(F)(F)F)c2)C1=O [nilutamide] (first compound 1 µM, partner dose 1 µM)	43.2
CC[C@]1(O)C[C@H]2CN(CCc3c([nH]c4ccccc34)[C@@](C(=O)OC)(c3cc4c(cc3OC)N(C=O)[C@H]3[C@@](O)(C(=O)OC)[C@H](OC(C)=O)[C@]5(CC)C=CCN6CC[C@]43[C@@H]65)C2)C1 [vincristine] + O=C(Nc1cccc(Cl)c1)Nc1ncc(CCNc2ncnc3ccsc23)s1 [SNS314] (first compound 0.0001 µM, partner dose 0.0008 µM)	96.5
Cc1cn(-c2cc(NC(=O)c3ccc(C)c(Nc4nccc(-c5cccnc5)n4)c3)cc(C(F)(F)F)c2)cn1 [nilotinib] + CC(C)(C)c1cnc(CSc2cnc(NC(=O)C3CCNCC3)s2)o1 [SNS-032] (first compound 0.2 µM, partner dose 0.01 µM)	76.5
COc1cc([C@@H]2c3cc4c(cc3[C@@H](O[C@@H]3O[C@@H]5CO[C@@H](C)O[C@H]5[C@H](O)[C@H]3O)[C@H]3COC(=O)[C@H]23)OCO4)cc(OC)c1O [etoposide] + NC(=O)Nc1cc(-c2cccc(F)c2)sc1C(=O)N[C@H]1CCCNC1 [AZD7762] (first compound 0.02 µM, partner dose 0.02 µM)	92.8
Cc1cc(Nc2cc(N3CCN(C)CC3)nc(Sc3ccc(NC(=O)C4CC4)cc3)n2)n[nH]1 [Tozasertib] + Cn1cncc1[C@@](N)(c1ccc(Cl)cc1)c1ccc2c(c1)c(-c1cccc(Cl)c1)cc(=O)n2C [tipifarnib] (first compound 0.006 µM, partner dose 0.01 µM)	79.3
Cc1ccc(Nc2nccc(N(C)c3ccc4c(C)n(C)nc4c3)n2)cc1S(N)(=O)=O [Pazopanib] + Cn1cncc1[C@@](N)(c1ccc(Cl)cc1)c1ccc2c(c1)c(-c1cccc(Cl)c1)cc(=O)n2C [tipifarnib] (first compound 0.4 µM, partner dose 0.01 µM)	70.6

Retrieved one by one from the entries so far:
SMILES	cleaved PARP positive nuclei fraction [%]
N#CC[C@H](C1CCCC1)n1cc(-c2ncnc3[nH]ccc23)cn1 [ruxolitinib] + CC1(C)NC(=O)N(c2ccc([N+](=O)[O-])c(C(F)(F)F)c2)C1=O [nilutamide] (first compound 1 µM, partner dose 1 µM)	43.2
O=C(/C=C/c1cccnc1)NCCCCC1CCN(C(=O)c2ccccc2)CC1 + Cc1ccc(NC(=O)c2cccc(N(C)C)c2)cc1NC(=O)c1ccc(O)cc1 [ZM336372] (first compound 0.01 µM, partner dose 2 µM)	261
